Literature values, collected in patent US12630535B2, “Inhibitors of ACK1/TNK2 tyrosine kinase” (H. LEE MOFFITT CANCER CENTER AND RESEARCH INSTITUTE, INC., priority 2020, dated 2026).
For at least one compound, name, drawing or mass did not settle the structure.

System: LNCaP cells expressing constitutively activated ACK1
Details: mouse xenograft model; cited from earlier work

Cc1nc(Nc2ncc(C(=O)Nc3c(C)cccc3Cl)s2)cc(N2CCN(CCO)CC2)n1 [Dasatinib]
xenograft growth: significantly reduced the growth
